# The other results are listed elsewhere or left out.
# Protein sequences, listed by entry. Tags and fused reporters are not part of them.
# UniProt Q0JBA9, entry or part of it: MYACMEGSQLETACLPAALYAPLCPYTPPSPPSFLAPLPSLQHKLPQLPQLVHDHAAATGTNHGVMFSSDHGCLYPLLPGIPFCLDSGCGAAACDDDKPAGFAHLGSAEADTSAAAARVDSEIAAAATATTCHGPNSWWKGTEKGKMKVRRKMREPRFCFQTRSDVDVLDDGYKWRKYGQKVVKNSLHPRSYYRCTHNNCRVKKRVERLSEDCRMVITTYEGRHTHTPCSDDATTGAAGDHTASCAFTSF
# Biological target: OsWRKY34 (Oryza sativa, UniProt Q0JBA9 1-250)
# Assay: protein-binding microarray (RPBM); PBS, 2% BSA, 51.3 ng/ul salmon testes DNA, 50 uM zinc acetate, 200 nM TF, 25 C, 1 h; high values mean tight binding
# Settings: protein: recombinant; tags: N-terminal polyhistidine and DsRed monomer fusion (pET32a); label: CyDye5-dUTP incorporated in the synthesized complementary strand; 3' TTTTT single-stranded linker to array surface; dsDNA, one strand shown
# In short: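 Binding signal here means per-feature fluorescence intensity in arbitrary units. The values were read on an Axon 4000B scanner after a custom Agilent array, double-stranded by primer extension with Cy5-dUTP, was incubated with 200 nM protein at 25 °C for 1 h in PBS with 2% BSA, salmon testes DNA and 50 µM zinc acetate, then washed. The proteins were transcription factors with an N-terminal polyhistidine tag and DsRed, expressed in E. coli BL21-CodonPlus and purified on Ni–NTA.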
row,Sequence,binding signal
1,TGTAAATTGTATTTCTATATGGACTCTGTTTTTTCTTTTTCGGAGTCACCTAGTGCAG,10800 fluorescence intensity (a.u.)
2,CATTCCGTGTCTGTCTACTACGACTCCAAATTAAATTTCACGGAGTCACCTAGTGCAG,8350 fluorescence intensity (a.u.)
3,ATCACCTTGCTCGATCGCCTCCGTTGTTTTGCACTAAATTCGGAGTCACCTAGTGCAG,8620 fluorescence intensity (a.u.)
4,TGTGGGTGGCTATAAATAGGGCAGGGTGCGGTTGCCATTGCGGAGTCACCTAGTGCAG,8740 fluorescence intensity (a.u.)
5,GTACAAAATAGTATACCTTTTCTTATCCCTTTTGAATTTCCGGAGTCACCTAGTGCAG,8040 fluorescence intensity (a.u.)
6,GAACAAACCCTTTTACTATTTTGGCCGCCGGTTGTTGGGCCGGAGTCACCTAGTGCAG,8470 fluorescence intensity (a.u.)
7,ACACTCACCTATAAATTGCATTCACCCGCTTCACACTTTCCGGAGTCACCTAGTGCAG,11800 fluorescence intensity (a.u.)
8,ATCTGGTAACTCAAGTGCTCTCTTCCTGACTGCTGCAGCACGGAGTCACCTAGTGCAG,9470 fluorescence intensity (a.u.)
9,GAGCTGGGGTGGTGTTTGTTTGTGGGTGTGTTTGTGTGCTCGGAGTCACCTAGTGCAG,15900 fluorescence intensity (a.u.)
10,TGCGCAGGGGTGGAGGGGATCGTGAGCAATGCGGACAATTCGGAGTCACCTAGTGCAG,12300 fluorescence intensity (a.u.)
11,CCAATGATATGTGCCGAAGTTGTATTTATCGAGAGATATTCGGAGTCACCTAGTGCAG,9850 fluorescence intensity (a.u.)
12,GGTGGTGGGTGGTTACGACTGATGCGGCGCGGCGAGTGGTCGGAGTCACCTAGTGCAG,8370 fluorescence intensity (a.u.)
13,GCTACATCGGTATATTCCGTGCGCTTGCGGATTTTATCTACGGAGTCACCTAGTGCAG,9990 fluorescence intensity (a.u.)
14,CATTTTTCCCGGTCCAATTACACACGTGGGGTGTGTTTGCCGGAGTCACCTAGTGCAG,8470 fluorescence intensity (a.u.)
15,ACCGCGTGAGTATTTTCCTCTTTTCTTTTCTTTTTTTTCTCGGAGTCACCTAGTGCAG,9790 fluorescence intensity (a.u.)
16,AAAACGAGGCCCGAACGGCTGAACATGGTCAATTTTCCCTCGGAGTCACCTAGTGCAG,8520 fluorescence intensity (a.u.)
17,AAACATACCTCTGCCCACATTCGTTGTACTAGAATATGTCCGGAGTCACCTAGTGCAG,8960 fluorescence intensity (a.u.)
18,CAGTGGAGGGTTGGATCGGTGTGTAGGGGCTTAAGTGCAACGGAGTCACCTAGTGCAG,9610 fluorescence intensity (a.u.)
19,AGGTCACCCACGCACCTCGCGCTTAATTTATTTGTTTCCACGGAGTCACCTAGTGCAG,10200 fluorescence intensity (a.u.)
20,TACGTTTCAGTTGTGCTTGTTCGGACCTTTCGATTTCTTTCGGAGTCACCTAGTGCAG,13900 fluorescence intensity (a.u.)
21,ATGATTTTTGGGTCATTTGGTTTGTTTTTGACTTTTGCAACGGAGTCACCTAGTGCAG,12100 fluorescence intensity (a.u.)

row,Sequence,binding signal
1,AGGAAGTATATGTTTGTAGGTAACTATTATATGAATTGAACGGAGTCACCTAGTGCAG,8230 fluorescence intensity (a.u.)
2,TCTACCTGTTTTCCACCGGATTTCATGAAAATTGTCATACCGGAGTCACCTAGTGCAG,8210 fluorescence intensity (a.u.)
3,GCCGCCGCCTCCGACCTCGCCATGCCCCGCTCCGTCGTCGCGGAGTCACCTAGTGCAG,9660 fluorescence intensity (a.u.)
4,ACGACACTACACCATGACACTGGATTACTAACACACATCTCGGAGTCACCTAGTGCAG,9650 fluorescence intensity (a.u.)
5,CACCTCCGCATATCATCCTCCGCTTCGCTTCCGCTCGATCCGGAGTCACCTAGTGCAG,9500 fluorescence intensity (a.u.)
6,TAACCCTAACTTATCCTCCTACTCTGCCCAAAATCTCATCCGGAGTCACCTAGTGCAG,8200 fluorescence intensity (a.u.)
7,CTCTCGGGTTTCTTTTTTTTTTTTTTGCCGCGGATAGGATCGGAGTCACCTAGTGCAG,12400 fluorescence intensity (a.u.)
8,AAAGCGCACTGCTCGTTCTTTTCAAGTTGGTACTCTTGATCGGAGTCACCTAGTGCAG,9290 fluorescence intensity (a.u.)
9,GCATCTGCTCTAGTACCATGTATGCTATTTGGTTGTACCACGGAGTCACCTAGTGCAG,8380 fluorescence intensity (a.u.)
10,GTCATCCTCCAGGTCCACGGCCACTAGCTACCATCTAGAACGGAGTCACCTAGTGCAG,9390 fluorescence intensity (a.u.)
11,AGTTGACTTGACCGAGTGGACTAGGTGCATCATCTTCCTTCGGAGTCACCTAGTGCAG,8400 fluorescence intensity (a.u.)
12,ACTCGTGCCGATTCCTTTCCCCTCCTATTGATGCAAATTACGGAGTCACCTAGTGCAG,8120 fluorescence intensity (a.u.)
13,AAAGGGATATATGTGGAATGTTTGGCTTTCTTTTGCCATTCGGAGTCACCTAGTGCAG,10500 fluorescence intensity (a.u.)
14,GCAAATGAGCCTATATTATGCCATCCTTTGGTATCCTTGTCGGAGTCACCTAGTGCAG,9400 fluorescence intensity (a.u.)
15,GATATTTTTTTTCTATGGACCATCTATCTAGGAATCTTTTCGGAGTCACCTAGTGCAG,8920 fluorescence intensity (a.u.)
16,CCTATAATTTTATTTTTAAGATCGGCTTTCACCCTTACACCGGAGTCACCTAGTGCAG,8800 fluorescence intensity (a.u.)
17,ATTATCGTAAAATCATTTTTTTTCATCACCACGTGTCTTCCGGAGTCACCTAGTGCAG,8580 fluorescence intensity (a.u.)
18,GCATCCCGCGCCGTCGCCTCACCGCTATCCCTCATCACCCCGGAGTCACCTAGTGCAG,12900 fluorescence intensity (a.u.)
19,GCACACACACTATAGCATAGCACTACTCTCTTCTTCTTTACGGAGTCACCTAGTGCAG,10900 fluorescence intensity (a.u.)
20,ATCCAACCCTATAACTTCTTATATTCTAGGACGGAGAGACCGGAGTCACCTAGTGCAG,8080 fluorescence intensity (a.u.)
21,CCTGTTTTACTGCATGCTTTAGATATCTTTGCCTATGTAGCGGAGTCACCTAGTGCAG,9780 fluorescence intensity (a.u.)

# As a short view, part of the list above:
row,Sequence,binding signal
7,CTCTCGGGTTTCTTTTTTTTTTTTTTGCCGCGGATAGGATCGGAGTCACCTAGTGCAG,12400 fluorescence intensity (a.u.)
8,AAAGCGCACTGCTCGTTCTTTTCAAGTTGGTACTCTTGATCGGAGTCACCTAGTGCAG,9290 fluorescence intensity (a.u.)
9,GCATCTGCTCTAGTACCATGTATGCTATTTGGTTGTACCACGGAGTCACCTAGTGCAG,8380 fluorescence intensity (a.u.)
10,GTCATCCTCCAGGTCCACGGCCACTAGCTACCATCTAGAACGGAGTCACCTAGTGCAG,9390 fluorescence intensity (a.u.)
11,AGTTGACTTGACCGAGTGGACTAGGTGCATCATCTTCCTTCGGAGTCACCTAGTGCAG,8400 fluorescence intensity (a.u.)
12,ACTCGTGCCGATTCCTTTCCCCTCCTATTGATGCAAATTACGGAGTCACCTAGTGCAG,8120 fluorescence intensity (a.u.)
13,AAAGGGATATATGTGGAATGTTTGGCTTTCTTTTGCCATTCGGAGTCACCTAGTGCAG,10500 fluorescence intensity (a.u.)
14,GCAAATGAGCCTATATTATGCCATCCTTTGGTATCCTTGTCGGAGTCACCTAGTGCAG,9400 fluorescence intensity (a.u.)
15,GATATTTTTTTTCTATGGACCATCTATCTAGGAATCTTTTCGGAGTCACCTAGTGCAG,8920 fluorescence intensity (a.u.)
16,CCTATAATTTTATTTTTAAGATCGGCTTTCACCCTTACACCGGAGTCACCTAGTGCAG,8800 fluorescence intensity (a.u.)
17,ATTATCGTAAAATCATTTTTTTTCATCACCACGTGTCTTCCGGAGTCACCTAGTGCAG,8580 fluorescence intensity (a.u.)
18,GCATCCCGCGCCGTCGCCTCACCGCTATCCCTCATCACCCCGGAGTCACCTAGTGCAG,12900 fluorescence intensity (a.u.)

# Additional results

row,Sequence,binding signal
1,CTTCGACTTCCACTGGATCCTGCTCGACGCGCTCGACATGCGGAGTCACCTAGTGCAG,9140 fluorescence intensity (a.u.)
2,TAGATGTGATAGGGTGTAAAATTTTTGTGTGTGAACTAAACGGAGTCACCTAGTGCAG,8240 fluorescence intensity (a.u.)
3,TGTGGATGGCGTGGATAAGTTGACAGTTGAAAATACAAAACGGAGTCACCTAGTGCAG,9130 fluorescence intensity (a.u.)
4,ACTTGGACTCTTTTTTTTTCTCCGATTAATGTGGAAATTTCGGAGTCACCTAGTGCAG,8110 fluorescence intensity (a.u.)
5,ATGGGTAGGAGGGTTATTAATTGATGATGTGGTTTGGTTACGGAGTCACCTAGTGCAG,9100 fluorescence intensity (a.u.)
6,AACCTCACACGTCTTCGTCCCTCCAGCCTGTCCCCGGTCCCGGAGTCACCTAGTGCAG,10100 fluorescence intensity (a.u.)
7,TTCCTCGGTTTCATATTATAAGTCATTTAACCTTTTTCTACGGAGTCACCTAGTGCAG,11300 fluorescence intensity (a.u.)
8,CATATACACACAACTTTTTCAGTCACATTGTCTTCAATTTCGGAGTCACCTAGTGCAG,10700 fluorescence intensity (a.u.)
9,CGCCGGCTCCTCGTCCTCGTCACCACCACCACGCCAACATCGGAGTCACCTAGTGCAG,8410 fluorescence intensity (a.u.)
10,CGGCTTTGACCAGTGCCGCGCCCTCTCCTCTCTGTCGCCTCGGAGTCACCTAGTGCAG,8270 fluorescence intensity (a.u.)
11,ACAGTAGCAGGGGTAATTTTGATTTTCTTTCCTATCAAATCGGAGTCACCTAGTGCAG,16000 fluorescence intensity (a.u.)
12,GTGTGTAGTGGTGTTTGTGCGCGGCCTCTAATATCATGTACGGAGTCACCTAGTGCAG,11600 fluorescence intensity (a.u.)
13,GCCGCTTAACCACCTCCCTCCGTAACAAACTCCTCATTTCCGGAGTCACCTAGTGCAG,9650 fluorescence intensity (a.u.)
14,CCATGACTTTTTAAGTGCCTACGCTTGTCGATTTCTGCACCGGAGTCACCTAGTGCAG,10700 fluorescence intensity (a.u.)
15,AAGCGAGCTTACGTATTGACGAATTTACGCTTTCTGGTCACGGAGTCACCTAGTGCAG,8160 fluorescence intensity (a.u.)
16,GCGGTGGCGTTTAATTTCCTTTTGTTTTAAATTTCTTTCACGGAGTCACCTAGTGCAG,8560 fluorescence intensity (a.u.)
17,TTCTATCTTTCTTCATCGTATCGTTCTAATTTAACCAAACCGGAGTCACCTAGTGCAG,9120 fluorescence intensity (a.u.)
18,CTCTCTCCTTCTCCTCACCTCGCCGCTCGCTGCTAAACCCCGGAGTCACCTAGTGCAG,8360 fluorescence intensity (a.u.)
19,ATCAAACTTCCTGTATCTTTACTCCTTTAAATGTTCCTTGCGGAGTCACCTAGTGCAG,9310 fluorescence intensity (a.u.)
20,TTTTAATCATATATGACCTTGCGATCATCTCATCAAACAGCGGAGTCACCTAGTGCAG,8250 fluorescence intensity (a.u.)
21,TTATCTCTATCCGTCGTCGTCGCTCTTGTCGCCGTCGCGTCGGAGTCACCTAGTGCAG,8670 fluorescence intensity (a.u.)

row,Sequence,binding signal
1,CTCGTGTTCATGTGTTAGGCTAGGTCGGGATGGCATTGTCCGGAGTCACCTAGTGCAG,10900 fluorescence intensity (a.u.)
2,GAGCTCTCCGCCGGCTCTCCACCTTCAAACAGCAACAAATCGGAGTCACCTAGTGCAG,8130 fluorescence intensity (a.u.)
3,TGCTTAGCCGTACATTGCCTGTCCAAACCCCATTTGACTCCGGAGTCACCTAGTGCAG,10300 fluorescence intensity (a.u.)
4,AAATTGTCATTGTTTGCTGGCTGATTTTATCATCATTTTCCGGAGTCACCTAGTGCAG,12700 fluorescence intensity (a.u.)
5,CACCCACGCGTGCACCGCTTGCACCCGCGCGTGCAGAACCCGGAGTCACCTAGTGCAG,9330 fluorescence intensity (a.u.)
6,ACCAAATCATTCGTTGTTTTATTATAATTAGCTTTCTTTTCGGAGTCACCTAGTGCAG,10800 fluorescence intensity (a.u.)
7,TTGTTCAGGTGTTTCTTTTCTCTGTTTCTTCAGTGCTTGACGGAGTCACCTAGTGCAG,12500 fluorescence intensity (a.u.)
8,TCCTCTCTGTCTCCGCCGATCTGCTCTGCCGCGACGCGCCCGGAGTCACCTAGTGCAG,8180 fluorescence intensity (a.u.)
9,AGTTCAGTAATAAAAATCACCTTTTACTATGTTGTTATATCGGAGTCACCTAGTGCAG,8510 fluorescence intensity (a.u.)
10,ATCCCTCGAATTCATCGTCTTCCTCAGCTCACCAAAATCCCGGAGTCACCTAGTGCAG,8180 fluorescence intensity (a.u.)
11,CTTTTTCTCCATCCGTCTCTATAAATACACGGACACACAACGGAGTCACCTAGTGCAG,10000 fluorescence intensity (a.u.)
12,CGCCGTCGAGCTCCGCTTCGCTTCCTCGCGTCCTGGTCCACGGAGTCACCTAGTGCAG,10000 fluorescence intensity (a.u.)
13,TGATGATTGGTTTCTTGGCCAATGGTTTGGTTGTTGTTTTCGGAGTCACCTAGTGCAG,9440 fluorescence intensity (a.u.)
14,GATCATCGATACGTCGGCTCGTCCATCCGGCATTTAAAGTCGGAGTCACCTAGTGCAG,8120 fluorescence intensity (a.u.)
15,GTCTCTCCCGCATCCGCTTCTCCGCTACCTCCCAATAAACCGGAGTCACCTAGTGCAG,8090 fluorescence intensity (a.u.)
16,CCTTAATGTGGGCTGCACGCGAGCGTCTGTCCCCGTTCCGCGGAGTCACCTAGTGCAG,9870 fluorescence intensity (a.u.)
17,TGTTATATCTCTATTTCTACTCTGTATAGCTAAATGCAACCGGAGTCACCTAGTGCAG,8190 fluorescence intensity (a.u.)
18,TCACCGTTAACACCACTGTTGGCTGGCCGCACCTACCTCTCGGAGTCACCTAGTGCAG,11300 fluorescence intensity (a.u.)
19,CCCTAGCTTAGCTTTGTCTTTCGTGTTGGCCTCGGCGCGCCGGAGTCACCTAGTGCAG,11100 fluorescence intensity (a.u.)
20,CACCACAAAGCTCTTCCACTGCAATCGCTGCCGGACTAGTCGGAGTCACCTAGTGCAG,9760 fluorescence intensity (a.u.)
21,CCACTTCACTCCACTCCACATCACGCGGCCGCACTCCACTCGGAGTCACCTAGTGCAG,11200 fluorescence intensity (a.u.)
